# In publication PMC7819943, “Rice protein-binding microarrays: a tool to detect cis-acting elements near promoter regions in rice”:
# Amino acid sequences for entries named in this document (tags omitted).
# UniProt Q0JBA9, entry or part of it: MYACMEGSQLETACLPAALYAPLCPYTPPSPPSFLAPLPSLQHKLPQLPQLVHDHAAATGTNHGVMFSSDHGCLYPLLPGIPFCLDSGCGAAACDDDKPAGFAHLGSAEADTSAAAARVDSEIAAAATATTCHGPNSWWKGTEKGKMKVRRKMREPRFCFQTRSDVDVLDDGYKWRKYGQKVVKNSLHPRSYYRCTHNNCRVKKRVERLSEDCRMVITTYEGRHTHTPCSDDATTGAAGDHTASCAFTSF
# Some of the results follow.
# Biological target: OsWRKY34 (Oryza sativa, UniProt Q0JBA9 1-250)
# Experiment: protein-binding microarray (RPBM); PBS, 2% BSA, 51.3 ng/ul salmon testes DNA, 50 uM zinc acetate, 200 nM TF, 25 C, 1 h; high values mean tight binding
# Conditions: protein: recombinant; tags: N-terminal polyhistidine and DsRed monomer fusion (pET32a); label: CyDye5-dUTP incorporated in the synthesized complementary strand; 3' TTTTT single-stranded linker to array surface; dsDNA, one strand shown
# How it was run: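 Transcription factors were each fused at the N-terminus to a polyhistidine tag plus DsRed and expressed in E. coli BL21-CodonPlus before Ni–NTA purification. Binding to a double-stranded custom Agilent array was carried out with 200 nM protein at 25 °C for 1 h in PBS, 2% BSA, salmon testes DNA and 50 µM zinc acetate. The binding signal is per-feature fluorescence intensity, in arbitrary units, on an Axon 4000B scanner.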
row,Sequence,binding signal
1,ATACCTAATCAACGTGTCATTTTGTGCCCCTATCACGGAACGGAGTCACCTAGTGCAG,8110 fluorescence intensity (a.u.)
2,ACTTGGTTTATTGTATCATCCCGGTCCAAAATCTAGTTTGCGGAGTCACCTAGTGCAG,8370 fluorescence intensity (a.u.)
3,CATTCTTTTTATGTGTTTATGCAGTAGTGCATGGCTTCACCGGAGTCACCTAGTGCAG,8090 fluorescence intensity (a.u.)
4,GAGGGTATTGGGGTACGCTGGTATGAGGATCTACGTAATACGGAGTCACCTAGTGCAG,8380 fluorescence intensity (a.u.)
5,GCTCACTCTCACTCTCACTCTTGCATTGCATTGCAATATTCGGAGTCACCTAGTGCAG,12600 fluorescence intensity (a.u.)
6,GGGTGTTAGAGCAAAATGTTTTGACTTGCATAGGTGTGTGCGGAGTCACCTAGTGCAG,8210 fluorescence intensity (a.u.)
7,CGGGCAATGCGGATCACGTCGATCACGTTCTCTTGTATTTCGGAGTCACCTAGTGCAG,8120 fluorescence intensity (a.u.)
8,ACTTTTACTCTATTTTTATTTTGCTGACTAGGATATCACGCGGAGTCACCTAGTGCAG,9320 fluorescence intensity (a.u.)
9,CTATATGGACTCTATACTCTATTTCTAATATTCCTTATTTCGGAGTCACCTAGTGCAG,8780 fluorescence intensity (a.u.)
10,ATAATCATCCTGCATTTCTTCAGTTGTCGCCATACTTCTGCGGAGTCACCTAGTGCAG,8980 fluorescence intensity (a.u.)
11,ATTTTTCATGCCTACATTTCTTGTTGTTTACCGTCACACTCGGAGTCACCTAGTGCAG,11600 fluorescence intensity (a.u.)
12,TCACCAACGCCAACGCCAAGGCCCATTTCCCACCAACCCACGGAGTCACCTAGTGCAG,8360 fluorescence intensity (a.u.)
13,CAGGGCGCCGTTGTTTGTCCCGCTGCTTCCACCGCATCCTCGGAGTCACCTAGTGCAG,8200 fluorescence intensity (a.u.)
14,ATGTGCCTGACCCCATTCATCTTCTCACATGAATATCACCCGGAGTCACCTAGTGCAG,8780 fluorescence intensity (a.u.)
15,GGCCCTTTTCAGTCCGTGCCGTGTTTTTCTTCTTCTTAATCGGAGTCACCTAGTGCAG,13200 fluorescence intensity (a.u.)
16,TATTTCCATTCAACCGTTTAAATTCATGTTTGTTTTCCATCGGAGTCACCTAGTGCAG,9960 fluorescence intensity (a.u.)
17,TTTCGACTCTGCTTCTTTTATTATTACTTTTTATTTTATTCGGAGTCACCTAGTGCAG,12400 fluorescence intensity (a.u.)
18,AAGGACGATTTATCTTTTGCTTCACCCGTCTCTACTCTCTCGGAGTCACCTAGTGCAG,9160 fluorescence intensity (a.u.)
19,ACATTGTTCTCTCTTTTACGGCCTTTTTTTTTTCTGAATTCGGAGTCACCTAGTGCAG,17900 fluorescence intensity (a.u.)
20,ACTCTACTTCTAATATTCCTTATTTTTAATTCTGAATTTCCGGAGTCACCTAGTGCAG,8950 fluorescence intensity (a.u.)
21,GTAAGGGTTAATTTGGGAGGTAGAGTAAAAGATTGTTCGACGGAGTCACCTAGTGCAG,9330 fluorescence intensity (a.u.)
22,GTAGGCTCGTCGTCTAGCTCTGGTCAACTCAAGTCGTCGCCGGAGTCACCTAGTGCAG,9500 fluorescence intensity (a.u.)
23,AGAGTGGTATATGTATGTTTTCAATTTTTTTTGAGATTTTCGGAGTCACCTAGTGCAG,10700 fluorescence intensity (a.u.)
24,TCCTCGCCGACGGCGTGCCGGCTCACGTTGCACCTCACCGCGGAGTCACCTAGTGCAG,8210 fluorescence intensity (a.u.)
25,GGACTATGTTTTGATGAATTGTGGTCGGATATGTGTTGACCGGAGTCACCTAGTGCAG,10300 fluorescence intensity (a.u.)
26,CTTCTTTTGTAGACAAACCAGTCACCTTGATTATTTTTTTCGGAGTCACCTAGTGCAG,9220 fluorescence intensity (a.u.)
27,CAACAACAACAACCCCGTCTCCACCACCACCACCACCACTCGGAGTCACCTAGTGCAG,8080 fluorescence intensity (a.u.)

row,Sequence,binding signal
1,CACCACCTTTGTTTGCTGCTCTCCATTTTTTTTCTTCGTTCGGAGTCACCTAGTGCAG,10200 fluorescence intensity (a.u.)
2,TTTTGGTCTTGTGATAGGTTATTTGCTTACGGTTATCAACCGGAGTCACCTAGTGCAG,8870 fluorescence intensity (a.u.)
3,TCTTCTCTTCAACCACTGGTGTGTGGTGTGTGTGGTTCTCCGGAGTCACCTAGTGCAG,10100 fluorescence intensity (a.u.)
4,TCTTTCTTTTCCGATCACACGGTCATCACTCGGTCAGGTTCGGAGTCACCTAGTGCAG,9280 fluorescence intensity (a.u.)
5,CTGATTAATTTACAGAAATTTCGCATCGTTTTTGATTTGTCGGAGTCACCTAGTGCAG,8830 fluorescence intensity (a.u.)
6,TCGTCTCGCAATTTATATGCAAATTGTGCAATTAGTTTTTCGGAGTCACCTAGTGCAG,8470 fluorescence intensity (a.u.)
7,TAACGGGGAACATCAATATATATACCTTTTCAGCTCTGTTCGGAGTCACCTAGTGCAG,9520 fluorescence intensity (a.u.)
8,CATCCCTTCCAATCCAGGCTTCCACTTCCATCGCATCGATCGGAGTCACCTAGTGCAG,8540 fluorescence intensity (a.u.)
9,TGGGTATCTATAGCTCTCTCATGCATTGCCTGTTTTTCTCCGGAGTCACCTAGTGCAG,9140 fluorescence intensity (a.u.)
10,GCGATTTGATTTGATTAAACTTAATTAATTATTTTTTGTTCGGAGTCACCTAGTGCAG,8080 fluorescence intensity (a.u.)
11,ATCATCATTCATTTCATCAACTCCTCTTTGTGTGTAGACTCGGAGTCACCTAGTGCAG,9130 fluorescence intensity (a.u.)
12,ACCGTTACGTTGCCCACTGCCACCGCCCGCGGCCCCAATCCGGAGTCACCTAGTGCAG,11400 fluorescence intensity (a.u.)
13,CTCATGTTTGACCATTCGTCTTATTTAAAAACTTTTGTGACGGAGTCACCTAGTGCAG,8180 fluorescence intensity (a.u.)
14,GGTTTTAATATTGAGGGTTAGGGTCGTTCTATCCGGGTTTCGGAGTCACCTAGTGCAG,9580 fluorescence intensity (a.u.)
15,GGCACACCACCCAGTCGGCCAACCAATCCTCCGACCGGCTCGGAGTCACCTAGTGCAG,9810 fluorescence intensity (a.u.)
16,CTGTGTGGGTTGGTAAAGACTGAGGCGTATTTATAACTGGCGGAGTCACCTAGTGCAG,9400 fluorescence intensity (a.u.)
17,GAGGTTAGACAAGTTTGACCATGTTAGGTGAGTGTTTGGTCGGAGTCACCTAGTGCAG,8400 fluorescence intensity (a.u.)
18,TCGCATCCACTCCACATACTACCACTCAAAAACTCTCTCTCGGAGTCACCTAGTGCAG,11000 fluorescence intensity (a.u.)
19,CTTTGATCGTCCGTCTTATTTATTTTTTTTTGTAATTAGTCGGAGTCACCTAGTGCAG,8430 fluorescence intensity (a.u.)
20,CGGTCTGACCGCCCACATACCTGCGGTCAGACCGGCCCTACGGAGTCACCTAGTGCAG,9440 fluorescence intensity (a.u.)
21,GCAGCGCCGCCGCCTCATCCGCGTCGACCTCCGCCTCCGCCGGAGTCACCTAGTGCAG,8750 fluorescence intensity (a.u.)
22,GTGCGCGCCATCATCACTATTCATCGGTTCTACATCTAGGCGGAGTCACCTAGTGCAG,9390 fluorescence intensity (a.u.)
23,CCCGCACGCCATGCCATTCCGCCCCACGGTCTCGCCGCCGCGGAGTCACCTAGTGCAG,9590 fluorescence intensity (a.u.)
24,CGGTTTTCTTCCCTCGGCCCATCTCTCTCTCTCGGCCCGGCGGAGTCACCTAGTGCAG,8420 fluorescence intensity (a.u.)
25,TGTTGTTGTAGATTTGGGATTTGGTGATATGGATTTGGAACGGAGTCACCTAGTGCAG,8590 fluorescence intensity (a.u.)
26,TATTTTATCTCACTGGCTATTTCCTATGATTATTTATTTCCGGAGTCACCTAGTGCAG,11400 fluorescence intensity (a.u.)
27,CTCATTATTTTAGCTTTTTTTTTTACAAAAGTACTTGTTCCGGAGTCACCTAGTGCAG,8300 fluorescence intensity (a.u.)

# Quoted at random: 2 records from the list
row,Sequence,binding signal
9,CTATATGGACTCTATACTCTATTTCTAATATTCCTTATTTCGGAGTCACCTAGTGCAG,8780 fluorescence intensity (a.u.)
21,GTAAGGGTTAATTTGGGAGGTAGAGTAAAAGATTGTTCGACGGAGTCACCTAGTGCAG,9330 fluorescence intensity (a.u.)
